Assay results reported in the supplement of paper PMC5662767.
Where a name gives a salt, the structure may show the parent alone. Some of the results follow. Baselines shift from plate to plate; read single values as rough.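 Smoothened with circularly permuted GFP in its cytoplasmic tail is carried by a clonal Drosophila S2 line; fluorescence appears when Hh-driven phosphorylation opens an inhibitory loop. Per-cell signal, read by flow cytometry, was scaled to Hh-stimulated untreated cells. Hits were consistent fluorescence-shifting groups of inhibitors sharing pathway targets, not single compounds.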

Test system: Drosophila S2 cl14 SmoIP sensor cells
Assay: normalized SmoIP GFP fluorescence (untreated unstimulated = 0%, untreated Hh-stimulated = 100%); higher = more Smo activation sensor fluorescence
Conditions: compound concentration: 15 uM, 24 h
[1] = stimulation: Hh conditioned medium (+Hh)
[2] = stimulation: mock conditioned medium (-Hh)

| SMILES | normalized SmoIP GFP fluorescence [1] [%] | normalized SmoIP GFP fluorescence [2] [%] |
| --- | --- | --- |
| CNCCC(Oc1ccc(C(F)(F)F)cc1)c1ccccc1 (centres undefined) [Fluoxetine-hydrochloride] | 148 | 35.5 |
| CC(C)C[C@H](NC(=O)[C@H](Cc1ccccc1)NC(=O)c1cnccn1)B(O)O [Bortezomib] | 88.5 | 71.8 |
| CC(C)C[C@H](NC(=O)CNC(=O)c1cc(Cl)ccc1Cl)B1OC(=O)C(CC(=O)O)(CC(=O)O)O1 | 104 | 41.6 |
| CC(=O)O/N=C1\C(=O)N(Cc2cc(Cl)ccc2Cl)c2ccc(Cl)cc21 | 116 | 7.75 |
| CCOc1cc2ncc(C#N)c(Nc3ccc(OCc4ccccn4)c(Cl)c3)c2cc1NC(=O)/C=C/CN(C)C [Neratinib(HKI-272)] | 49.7 | -23.6 |
| COc1ccc([C@H]2CNC(=O)C2)cc1OC1CCCC1 [sRolipram] | 128 | -5.8 |
| CC(C)c1cc(C(=O)N2Cc3ccc(CN4CCN(C)CC4)cc3C2)c(O)cc1O | 169 | 72.2 |
| Cc1onc(-c2ccccc2)c1-c1ccc(S(N)(=O)=O)cc1 [valdecoxib] | 127 | -3.62 |
| Nc1nc(=O)n([C@@H]2CS[C@H](CO)O2)cc1F [Emtricitabine] | 128 | -11.7 |
| CNC(=O)Nc1ccc(-c2nc(N3CC4CCC(C3)O4)c3cnn(C4CCC5(CC4)OCCO5)c3n2)cc1 | 114 | 8.43 |
| N#Cc1c(Oc2ccc(F)c(NC(=O)Cc3cccc(C(F)(F)F)c3)c2)ccc2nc(NC(=O)C3CC3)sc12 | 274 | 15.5 |
| CCOc1nc2cccc(C(=O)O)c2n1Cc1ccc(-c2ccccc2-c2noc(=O)[nH]2)cc1 [azilsartan-tak-536] | 120 | -2.71 |
| CCC[C@H](NC(=O)[C@@H]1[C@H]2CCC[C@H]2CN1C(=O)[C@@H](NC(=O)[C@@H](NC(=O)c1cnccn1)C1CCCCC1)C(C)(C)C)C(=O)C(=O)NC1CC1 [Telaprevir(VX-950)] | 131 | 14.5 |
| Cc1ccccc1C(C(=O)NC1CCCCC1)N(C(=O)Cn1ccnc1C)c1cccc(F)c1 (centres undefined) | 135 | 12.5 |
| C/C=C1\[C@H]2C=C(C)C[C@]1(N)c1ccc(=O)[nH]c1C2 [(-)-Huperzine-A] | 124 | -17.2 |
| Cc1nn(-c2ccccc2)c(C)c1C=NN1CCN(Cc2ccccc2)CC1 [sant-1] | 119 | 4.91 |
| Nc1nccc2c1ncn2[C@@H]1C=C(CO)[C@@H](O)[C@H]1O [3-deazaneplanocin-a-dznep] | 154 | 4.28 |
| CC(=O)S[C@@H]1CC2=CC(=O)CC[C@]2(C)[C@H]2CC[C@@]3(C)[C@@H](CC[C@@]34CCC(=O)O4)[C@H]12 [spironolactone] | 121 | -0.491 |
| O=C(O)C(O)Cc1ccc(O)c(O)c1 (centres undefined) [Sodium-Danshensu] | 101 | -7.65 |
| O=C(O)Cc1ccccc1Nc1c(Cl)cccc1Cl [Diclofenac-sodium] | 121 | -14.1 |
| CCCCCCCCCCCCc1ccc(S(=O)(=O)Nc2nncs2)cc1 | 120 | -0.0496 |
| O=C(Nc1cccc(Cl)c1)c1ccccn1 | 124 | -2.71 |
| CCOC(=O)[C@H]1O[C@@H]1C(=O)N[C@@H](CC(C)C)C(=O)NCCC(C)C [Aloxistatin] | 146 | 59.1 |

| SMILES | normalized SmoIP GFP fluorescence [1] [%] | normalized SmoIP GFP fluorescence [2] [%] |
| --- | --- | --- |
| COC(=O)C1=C(C)NC(C)=C(C(=O)OC(C)C)C1c1cccc2nonc12 (centres undefined) [Isradipine(Dynacirc)] | 155 | 69.4 |
| CCOC(=O)[C@H](CCc1ccccc1)N[C@@H](C)C(=O)N1[C@@H](C(=O)O)C[C@@H]2CCC[C@@H]21 [Ramipril(Altace)] | 123 | -17.5 |
| CCCOc1ccc(C(=O)OCCN(CC)CC)cc1N [proparacaine-hcl] | 114 | 1.44 |
| CCCc1nn(C)c2c(=O)[nH]c(-c3cc(S(=O)(=O)N4CCN(C)CC4)ccc3OCC)nc12 [Sildenafil-citrate] | 135 | 13.8 |
| C[C@H](NC(=O)[C@@H](O)c1cc(F)cc(F)c1)C(=O)N[C@@H]1C(=O)N(C)c2ccccc2-c2ccccc21 | 116 | -12.7 |
| CCNC(=O)Nc1ccc(-c2nc3c(c(N4CCOC[C@@H]4C)n2)CCN(C2COC2)C3)cc1 | 111 | 17.8 |
| CCCC(CCC)C(=O)O [Sodium-valproate] | 127 | -7.81 |
| CO[C@H]1C[C@@H]2CC[C@@H](C)[C@@](O)(O2)C(=O)C(=O)N2CCCC[C@H]2C(=O)O[C@H]([C@H](C)C[C@@H]2CC[C@@H](OCCO)[C@H](OC)C2)CC(=O)[C@H](C)/C=C(\C)[C@@H](O)[C@@H](OC)C(=O)[C@H](C)C[C@H](C)/C=C/C=C/C=C/1C [Everolimus(RAD001)] | 83 | 24.6 |
| O=C(N/N=C/c1ccc(O)c(O)c1)c1cc2ccccc2cc1O [dynasore] | 138 | 64 |
| C[C@@H](O[C@H]1OCCN(Cc2n[nH]c(=O)[nH]2)[C@H]1c1ccc(F)cc1)c1cc(C(F)(F)F)cc(C(F)(F)F)c1 [Aprepitant] | 136 | 60.6 |
| Cc1cc(F)c(Nc2ncnc3cc(OCc4ccccc4)ccc23)cc1O | 112 | 2.35 |
| CC1(C)O[C@@H]2[C@@H](CO[C@@]3(COS(N)(=O)=O)OC(C)(C)O[C@@H]23)O1 [Topiramate] | 142 | 4.8 |
| Cc1cccc(C)c1OCC(=O)N[C@@H](Cc1ccccc1)[C@@H](O)C[C@H](Cc1ccccc1)NC(=O)[C@H](C(C)C)N1CCCNC1=O [Lopinavir] | 209 | 33.6 |
| COc1cc2ncnc(Nc3ccc(O)c(Br)c3)c2cc1OC | 119 | -1.12 |
| CC(=O)c1cc([N+](=O)[O-])c(Sc2cccc(Cl)c2Cl)s1 | -63.1 | 18.6 |
| CC(C)c1nc(CN(C)C(=O)N[C@H](C(=O)N[C@@H](Cc2ccccc2)C[C@H](O)[C@H](Cc2ccccc2)NC(=O)OCc2cncs2)C(C)C)cs1 [Ritonavir] | 123 | -3.39 |
| NCCCCCNCC12CC3CC(CC(C3)C1)C2 [iem-1754-dihydrobromide] | 110 | -1.34 |
| O=C(c1ccc(Nc2nccc(-c3cc4ccccc4s3)n2)cc1)N1CCC(N2CCCC2)CC1 | 170 | 82.1 |
| CN(C[C@@H]1COCCO1)S(=O)(=O)Nc1ccc2ccc3ncc(-c4cnn(C)c4)cc3c(=O)c2c1 | 69.6 | 20.9 |
| NC1(Cc2ccc(Cl)cc2)CCN(c2ncnc3[nH]ccc23)CC1 | 121 | 47.5 |
| CNCc1ccc(-c2[nH]c3cc(F)cc4c3c2CCNC4=O)cc1 | 218 | 75.1 |
| CC[C@H](NC(=O)[C@H](C)NC)C(=O)N1C[C@@H](O)C[C@H]1Cc1c(-c2[nH]c3cc(F)ccc3c2C[C@@H]2C[C@H](O)CN2C(=O)[C@H](CC)NC(=O)[C@H](C)NC)[nH]c2cc(F)ccc12 | 81.3 | 4.79 |
| CNS(=O)(=O)Cc1ccc2[nH]cc(CCN(C)C)c2c1 [Sumatriptan-succinate] | 126 | 7.39 |

Pulled by structure from the entries so far:

| SMILES | normalized SmoIP GFP fluorescence [1] [%] | normalized SmoIP GFP fluorescence [2] [%] |
| --- | --- | --- |
| CNCc1ccc(-c2[nH]c3cc(F)cc4c3c2CCNC4=O)cc1 | 218 | 75.1 |
| CC1(C)O[C@@H]2[C@@H](CO[C@@]3(COS(N)(=O)=O)OC(C)(C)O[C@@H]23)O1 [Topiramate] | 142 | 4.8 |
| NC1(Cc2ccc(Cl)cc2)CCN(c2ncnc3[nH]ccc23)CC1 | 121 | 47.5 |

Following part.

| SMILES | normalized SmoIP GFP fluorescence [1] [%] | normalized SmoIP GFP fluorescence [2] [%] |
| --- | --- | --- |
| Cn1cc(CNCC2CCN(c3ncc(C(=O)NO)cn3)CC2)c2ccccc21 | 277 | 75.9 |
| NS(=O)(=O)C#Cc1ccccc1 [pifithrin-u] | 93.3 | 14.5 |
| CC/C(=C(\c1ccccc1)c1ccc(OCCN(C)C)cc1)c1ccccc1 [Tamoxifen-Citrate(Nolvadex)] | 148 | 15.1 |
| O=C(O)CC[C@H]1CC[C@@](c2cc(F)ccc2F)(S(=O)(=O)c2ccc(Cl)cc2)CC1 | 151 | 15.4 |
| N=C(N)Nc1ccc(C(=O)Oc2ccc3cc(C(=N)N)ccc3c2)cc1 [Nafamostat-mesylate] | 115 | 23.1 |
| CN1[C@@H]2CC[C@H]1C[C@@H](OC(c1ccccc1)c1ccccc1)C2 [benztropine-mesylate] | 136 | 18.4 |
| CN1CCC[C@@H]1Cc1c[nH]c2ccc(CCS(=O)(=O)c3ccccc3)cc12 [eletriptan-hydrobromide] | 124 | 4.79 |
| COc1cc(Nc2ncc(F)c(Nc3ccc4c(n3)NC(=O)C(C)(C)O4)n2)cc(OC)c1OC | 135 | 1.24 |
| CC(C)NCC(O)COc1ccc(COCCOC(C)C)cc1 (centres undefined) [Bisoprolol-Fumarate] | 125 | 1.35 |
| NC(=O)Nc1sc(-c2ccc(F)cc2)cc1C(N)=O [tpca-1] | 167 | 19.3 |
| Cc1ccc(-c2c(-c3nn(C)c4ncnc(N5CC[C@H](N6CCCCC6)C5)c34)cnn2C)cc1 | 125 | 3.88 |
| Cc1cc(NC(=O)Nc2ccc(N(C)C)cc2)c2cc(F)cc(F)c2n1 | 214 | 56.8 |
| CC(=O)/N=c1/sc(S(N)(=O)=O)nn1C [methazolamide] | 128 | 1.1 |
| O=C(C[S+]([O-])Cc1ccco1)NC/C=C\COc1cc(CN2CCCCC2)ccn1 (centres undefined) [lafutidine] | 141 | 6.1 |
| CC(=O)O[C@]1(C(C)=O)CC[C@H]2[C@@H]3C=C(C)C4=CC(=O)CC[C@]4(C)[C@H]3CC[C@@]21C [Megestrol-Acetate] | 167 | 48.9 |
| CC(C)N(CCCNC(=O)Nc1ccc(C(C)(C)C)cc1)C[C@H]1O[C@@H](n2cc(Br)c3c(N)ncnc32)[C@H](O)[C@@H]1O | 184 | 56 |
| CCNC(=O)[C@H]1O[C@@H](n2cnc3c(N)nc(NCCc4ccc(CCC(=O)O)cc4)nc32)[C@H](O)[C@@H]1O | 120 | -9.58 |
| Clc1ccc2c(c1)CCc1cccnc1C2=C1CCNCC1 [desloratadine] | 139 | 31 |
| CNCC[C@@H](Oc1ccccc1C)c1ccccc1 [atomoxetine-hydrochloride] | 139 | 15.9 |
| C[C@H](Nc1ncnc2nc[nH]c12)c1cc2cccc(Cl)c2c(=O)n1-c1ccccc1 | 113 | 35.5 |
| CCc1cccc(CC)c1NC(=O)N1Cc2[nH]nc(NC(=O)c3ccc(N4CCN(C)CC4)cc3)c2C1 | 170 | 10.4 |
